# Data taken from paper PMC3623819.
# The chains behind the UniProt entries cited, without tags or fusion partners. Residues count along the entry.
# UniProt Q7LBC6: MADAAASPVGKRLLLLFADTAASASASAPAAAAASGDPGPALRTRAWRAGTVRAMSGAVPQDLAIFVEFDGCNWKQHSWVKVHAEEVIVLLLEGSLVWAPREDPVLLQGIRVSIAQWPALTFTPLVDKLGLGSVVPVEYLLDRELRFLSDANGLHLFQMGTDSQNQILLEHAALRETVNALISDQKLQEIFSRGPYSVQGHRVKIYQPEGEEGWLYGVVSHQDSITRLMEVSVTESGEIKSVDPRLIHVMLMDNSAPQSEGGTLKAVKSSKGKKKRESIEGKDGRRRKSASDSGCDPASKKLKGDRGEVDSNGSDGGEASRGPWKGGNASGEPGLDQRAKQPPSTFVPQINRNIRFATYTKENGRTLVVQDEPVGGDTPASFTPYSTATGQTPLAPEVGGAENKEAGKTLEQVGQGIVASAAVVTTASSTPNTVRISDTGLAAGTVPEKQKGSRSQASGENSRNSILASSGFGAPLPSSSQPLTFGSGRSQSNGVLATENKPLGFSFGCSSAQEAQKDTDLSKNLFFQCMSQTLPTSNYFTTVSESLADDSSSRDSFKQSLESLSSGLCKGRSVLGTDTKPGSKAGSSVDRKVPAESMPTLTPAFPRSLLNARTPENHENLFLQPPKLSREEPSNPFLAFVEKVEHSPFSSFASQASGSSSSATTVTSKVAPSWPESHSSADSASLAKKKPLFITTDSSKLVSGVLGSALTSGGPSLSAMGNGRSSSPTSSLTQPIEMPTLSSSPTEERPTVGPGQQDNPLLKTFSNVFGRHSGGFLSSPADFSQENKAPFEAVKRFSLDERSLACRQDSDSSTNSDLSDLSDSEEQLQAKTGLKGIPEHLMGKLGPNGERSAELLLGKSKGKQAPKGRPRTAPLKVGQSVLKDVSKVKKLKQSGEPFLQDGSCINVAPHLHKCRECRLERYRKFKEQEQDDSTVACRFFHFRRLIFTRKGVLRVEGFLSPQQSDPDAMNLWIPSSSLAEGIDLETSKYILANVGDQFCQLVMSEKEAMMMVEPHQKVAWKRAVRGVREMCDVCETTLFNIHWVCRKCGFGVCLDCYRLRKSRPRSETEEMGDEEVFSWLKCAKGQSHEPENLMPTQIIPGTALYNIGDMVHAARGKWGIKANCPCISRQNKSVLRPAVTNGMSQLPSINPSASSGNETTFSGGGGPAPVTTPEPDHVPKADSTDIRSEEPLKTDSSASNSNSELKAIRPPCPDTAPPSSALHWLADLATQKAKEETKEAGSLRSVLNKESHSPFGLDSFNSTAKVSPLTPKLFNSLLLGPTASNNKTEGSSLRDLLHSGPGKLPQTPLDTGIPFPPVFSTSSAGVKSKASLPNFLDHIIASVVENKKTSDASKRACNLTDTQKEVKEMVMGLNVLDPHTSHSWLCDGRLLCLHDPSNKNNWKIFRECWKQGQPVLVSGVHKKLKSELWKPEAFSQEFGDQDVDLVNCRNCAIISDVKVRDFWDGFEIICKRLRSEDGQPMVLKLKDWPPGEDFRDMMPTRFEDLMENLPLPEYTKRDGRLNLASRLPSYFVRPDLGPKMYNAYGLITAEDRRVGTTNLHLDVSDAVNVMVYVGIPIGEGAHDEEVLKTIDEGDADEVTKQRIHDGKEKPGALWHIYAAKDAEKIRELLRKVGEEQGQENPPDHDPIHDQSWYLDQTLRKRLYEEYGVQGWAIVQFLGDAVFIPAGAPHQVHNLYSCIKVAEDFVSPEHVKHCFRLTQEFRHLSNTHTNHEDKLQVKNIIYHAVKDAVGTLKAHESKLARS
# UniProt Q8N9R8: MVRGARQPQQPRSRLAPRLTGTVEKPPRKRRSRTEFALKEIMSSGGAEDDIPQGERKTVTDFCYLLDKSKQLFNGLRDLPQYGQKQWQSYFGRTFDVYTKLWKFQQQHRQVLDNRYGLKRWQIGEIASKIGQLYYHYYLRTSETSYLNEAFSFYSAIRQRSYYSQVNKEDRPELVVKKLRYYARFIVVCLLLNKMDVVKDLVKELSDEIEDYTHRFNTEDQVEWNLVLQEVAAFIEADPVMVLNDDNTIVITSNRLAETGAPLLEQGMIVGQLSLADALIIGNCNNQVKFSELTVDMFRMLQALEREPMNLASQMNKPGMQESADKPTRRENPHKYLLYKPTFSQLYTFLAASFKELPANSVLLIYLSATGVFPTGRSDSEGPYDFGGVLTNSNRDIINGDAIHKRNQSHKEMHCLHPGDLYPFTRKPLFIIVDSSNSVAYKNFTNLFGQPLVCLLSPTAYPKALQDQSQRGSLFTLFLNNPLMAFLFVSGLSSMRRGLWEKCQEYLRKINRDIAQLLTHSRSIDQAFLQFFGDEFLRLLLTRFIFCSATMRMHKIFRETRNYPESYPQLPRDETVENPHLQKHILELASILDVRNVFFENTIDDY
# UniProt O60568, residues 25-738: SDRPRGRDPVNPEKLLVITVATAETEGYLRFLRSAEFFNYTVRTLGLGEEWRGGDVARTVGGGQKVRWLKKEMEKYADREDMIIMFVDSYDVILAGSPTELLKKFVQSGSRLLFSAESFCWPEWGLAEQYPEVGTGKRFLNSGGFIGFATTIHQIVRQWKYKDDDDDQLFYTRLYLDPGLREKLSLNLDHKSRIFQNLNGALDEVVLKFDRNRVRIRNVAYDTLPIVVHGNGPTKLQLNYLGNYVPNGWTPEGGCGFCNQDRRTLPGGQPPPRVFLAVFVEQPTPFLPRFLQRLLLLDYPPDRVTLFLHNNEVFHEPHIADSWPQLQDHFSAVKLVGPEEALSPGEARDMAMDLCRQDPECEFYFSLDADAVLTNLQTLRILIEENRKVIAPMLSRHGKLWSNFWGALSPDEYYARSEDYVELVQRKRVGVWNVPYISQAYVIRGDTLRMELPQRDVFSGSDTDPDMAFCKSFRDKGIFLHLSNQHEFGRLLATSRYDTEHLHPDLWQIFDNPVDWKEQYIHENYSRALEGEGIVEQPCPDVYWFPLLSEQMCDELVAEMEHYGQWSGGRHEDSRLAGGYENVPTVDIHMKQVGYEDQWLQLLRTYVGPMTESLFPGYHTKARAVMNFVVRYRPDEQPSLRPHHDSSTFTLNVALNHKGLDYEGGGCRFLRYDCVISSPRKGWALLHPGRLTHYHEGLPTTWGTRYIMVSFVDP
# Where two headings read alike, the source gives them in different places. No constants are given. Whether binding was seen depends on the method and setting. Binding seen in cells or lysates may run through a third protein. Here binding means that the protein was enriched with, or labelled near, the bait; the list need not be complete. For some assays here: Where a sequence is shown, tags or fusion partners need not be part of it.
# T1: Avi-tagged KDM3A (human) (UniProt Q9Y4C1)
# T1 sequence (chain, biotin on the Avi-tag (by co-expressed BirA)): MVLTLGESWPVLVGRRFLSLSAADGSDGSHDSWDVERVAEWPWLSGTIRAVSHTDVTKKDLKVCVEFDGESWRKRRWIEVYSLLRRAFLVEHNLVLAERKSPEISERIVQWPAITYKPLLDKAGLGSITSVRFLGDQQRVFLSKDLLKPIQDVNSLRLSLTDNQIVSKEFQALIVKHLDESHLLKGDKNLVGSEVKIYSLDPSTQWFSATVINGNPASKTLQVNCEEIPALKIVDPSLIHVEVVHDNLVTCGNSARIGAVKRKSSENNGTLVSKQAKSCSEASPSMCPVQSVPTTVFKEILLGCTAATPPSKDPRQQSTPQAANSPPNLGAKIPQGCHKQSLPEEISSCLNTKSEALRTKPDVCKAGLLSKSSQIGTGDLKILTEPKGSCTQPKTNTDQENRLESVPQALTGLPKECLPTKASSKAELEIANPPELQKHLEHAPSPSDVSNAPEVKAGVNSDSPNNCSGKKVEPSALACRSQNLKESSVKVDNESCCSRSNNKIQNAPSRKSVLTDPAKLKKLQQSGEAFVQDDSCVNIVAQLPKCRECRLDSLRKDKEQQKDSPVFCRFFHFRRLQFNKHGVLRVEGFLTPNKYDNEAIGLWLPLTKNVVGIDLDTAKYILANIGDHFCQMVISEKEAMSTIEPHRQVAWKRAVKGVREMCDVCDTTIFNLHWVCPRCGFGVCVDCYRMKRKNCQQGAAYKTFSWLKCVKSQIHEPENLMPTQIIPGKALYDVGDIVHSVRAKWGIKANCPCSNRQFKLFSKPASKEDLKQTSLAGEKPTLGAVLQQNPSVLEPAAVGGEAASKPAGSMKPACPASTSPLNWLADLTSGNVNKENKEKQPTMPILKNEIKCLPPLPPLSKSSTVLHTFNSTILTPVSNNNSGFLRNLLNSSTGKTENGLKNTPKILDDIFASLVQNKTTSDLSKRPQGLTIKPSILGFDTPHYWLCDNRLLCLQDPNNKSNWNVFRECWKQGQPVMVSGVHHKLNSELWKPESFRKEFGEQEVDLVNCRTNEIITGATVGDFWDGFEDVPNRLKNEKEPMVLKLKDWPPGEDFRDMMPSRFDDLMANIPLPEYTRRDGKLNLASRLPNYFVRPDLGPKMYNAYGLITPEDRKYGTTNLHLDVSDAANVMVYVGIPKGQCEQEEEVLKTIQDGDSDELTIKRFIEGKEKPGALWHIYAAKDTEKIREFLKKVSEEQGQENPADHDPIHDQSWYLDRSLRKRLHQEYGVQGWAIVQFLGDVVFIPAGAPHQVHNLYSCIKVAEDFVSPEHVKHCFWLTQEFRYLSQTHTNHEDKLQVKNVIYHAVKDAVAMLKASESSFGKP
# How the values were obtained:
# Assay in all cases: affinity purification with mass spectrometry; Avi-tagged bait, biotinylated by co-expressed BirA, overexpressed in HEK293T; lysate (50 mM Tris-Cl pH 7.4, 100 mM NaCl, 0.4% NP40, DNAse I) on streptavidin agarose 2 h; SDS gel, iTRAQ quantitative MS against mock-transfected control
# Avi-tagged KDM3B (human) [1] = biological target: Avi-tagged KDM3B (human) (UniProt Q7LBC6)
# Avi-tagged KDM3A (human) [2] = biological target: T1, Avi-tagged KDM3A (human)
# Avi-tagged KDM3A (human) [3] = biological target: T1, Avi-tagged KDM3A (human); remark: listed apart in the source
# Avi-tagged KDM3B (human) [4] = biological target: Avi-tagged KDM3B (human) (UniProt Q7LBC6); remark: listed apart in the source
molecule,measurement,setting,value
"SCAI (Suppressor of cancer cell invasion), endogenous (from UniProt Q8N9R8 1-606)",binding,Avi-tagged KDM3B (human) [1],binds
procollagen-lysine dioxygenase PLOD3 (from UniProt O60568 25-738) (enzyme),binding,Avi-tagged KDM3B (human) [1],binds
HSP8 (human (endogenous in HEK293T)),binding,Avi-tagged KDM3A (human) [2],binds
"TRAP1 (protein, UniProt Q12931 60-704) STQTAEDKEEPLHSIISSTESVQGSTSKHEFQAETKKLLDIVARSLYSEKEVFIRELISNASDALEKLRHKLVSDGQALPEMEIHLQTNAEKGTITIQDTGIGMTQEELVSNLGTIARSGSKAFLDALQNQAEASSKIIGQFGVGFYSAFMVADRVEVYSRSAAPGSLGYQWLSDGSGVFEIAEASGVRTGTKIIIHLKSDCKEFSSEARVRDVVTKYSNFVSFPLYLNGRRMNTLQAIWMMDPKDVREWQHEEFYRYVAQAHDKPRYTLHYKTDAPLNIRSIFYVPDMKPSMFDVSRELGSSVALYSRKVLIQTKATDILPKWLRFIRGVVDSEDIPLNLSRELLQESALIRKLRDVLQQRLIKFFIDQSKKDAEKYAKFFEDYGLFMREGIVTATEQEVKEDIAKLLRYESSALPSGQLTSLSEYASRMRAGTRNIYYLCAPNRHLAEHSPYYEAMKKKDTEVLFCFEQFDELTLLHLREFDKKKLISVETDIVVDHYKEEKFEDRSPAAECLSEKETEELMAWMRNVLGSRVTNVKVTLRLDTHPAMVTVLEMGAARHFLRMQQLAKTQEERAQLLQPTLEINPRHALIKKLNQLRASEPGLAQLLVDQIYENAMIAAGLVDDPRAMVGRLNELLVKALERH",binding,Avi-tagged KDM3A (human) [3],binds
same,binding,Avi-tagged KDM3B (human) [4],binds
"procollagen-lysine dioxygenase PLOD1 (enzyme, UniProt Q02809 19-727) KGDAKPEDNLLVLTVATKETEGFRRFKRSAQFFNYKIQALGLGEDWNVEKGTSAGGGQKVRLLKKALEKHADKEDLVILFADSYDVLFASGPRELLKKFRQARSQVVFSAEELIYPDRRLETKYPVVSDGKRFLGSGGFIGYAPNLSKLVAEWEGQDSDSDQLFYTKIFLDPEKREQINITLDHRCRIFQNLDGALDEVVLKFEMGHVRARNLAYDTLPVLIHGNGPTKLQLNYLGNYIPRFWTFETGCTVCDEGLRSLKGIGDEALPTVLVGVFIEQPTPFVSLFFQRLLRLHYPQKHMRLFIHNHEQHHKAQVEEFLAQHGSEYQSVKLVGPEVRMANADARNMGADLCRQDRSCTYYFSVDADVALTEPNSLRLLIQQNKNVIAPLMTRHGRLWSNFWGALSADGYYARSEDYVDIVQGRRVGVWNVPYISNIYLIKGSALRGELQSSDLFHHSKLDPDMAFCANIRQQDVFMFLTNRHTLGHLLSLDSYRTTHLHNDLWEVFSNPEDWKEKYIHQNYTKALAGKLVETPCPDVYWFPIFTEVACDELVEEMEHFGQWSLGNNKDNRIQGGYENVPTIDIHMNQIGFEREWHKFLLEYIAPMTEKLYPGYYTRAQFDLAFVVRYKPDEQPSLMPHHDASTFTINIALNRVGVDYEGGGCRFLRYNCSIRAPRKGWTLMHPGRLTHYHEGLPTTRGTRYIAVSFVDP",binding,Avi-tagged KDM3B (human) [4],binds
"procollagen-lysine dioxygenase PLOD2 (enzyme, UniProt O00469 26-737) ADSEKPSSIPTDKLLVITVATKESDGFHRFMQSAKYFNYTVKVLGQGEEWRGGDGINSIGGGQKVRLMKEVMEHYADQDDLVVMFTECFDVIFAGGPEEVLKKFQKANHKVVFAADGILWPDKRLADKYPVVHIGKRYLNSGGFIGYAPYVNRIVQQWNLQDNDDDQLFYTKVYIDPLKREAINITLDHKCKIFQTLNGAVDEVVLKFENGKARAKNTFYETLPVAINGNGPTKILLNYFGNYVPNSWTQDNGCTLCEFDTVDLSAVDVHPNVSIGVFIEQPTPFLPRFLDILLTLDYPKEALKLFIHNKEVYHEKDIKVFFDKAKHEIKTIKIVGPEENLSQAEARNMGMDFCRQDEKCDYYFSVDADVVLTNPRTLKILIEQNRKIIAPLVTRHGKLWSNFWGALSPDGYYARSEDYVDIVQGNRVGVWNVPYMANVYLIKGKTLRSEMNERNYFVRDKLDPDMALCRNAREMGVFMYISNRHEFGRLLSTANYNTSHYNNDLWQIFENPVDWKEKYINRDYSKIFTENIVEQPCPDVFWFPIFSEKACDELVEEMEHYGKWSGGKHHDSRISGGYENVPTDDIHMKQVDLENVWLHFIREFIAPVTLKVFAGYYTKGFALLNFVVKYSPERQRSLRPHHDASTFTINIALNNVGEDFQGGGCKFLRYNCSIESPRKGWSFMHPGRLTHLHEGLPVKNGTRYIAVSFIDP",binding,Avi-tagged KDM3B (human) [4],binds
"suppressor of G2 allele of SKP1 homolog (SUGT1) (protein, UniProt Q9Y2Z0 1-365) MAAAAAGTATSQRFFQSFSDALIDEDPQAALEELTKALEQKPDDAQYYCQRAYCHILLGNYCVAVADAKKSLELNPNNSTAMLRKGICEYHEKNYAAALETFTEGQKLDIETGFHRVGQAGLQLLTSSDPPALDSQSAGITGADANFSVWIKRCQEAQNGSESEVWTHQSKIKYDWYQTESQVVITLMIKNVQKNDVNVEFSEKELSALVKLPSGEDYNLKLELLHPIIPEQSTFKVLSTKIEIKLKKPEAVRWEKLEGQGDVPTPKQFVADVKNLYPSSSPYTRNWDKLVGEIKEEEKNEKLEGDAALNRLFQQIYSDGSDEVKRAMNKSFMESGGTVLSTNWSDVGKRKVEINPPDDMEWKKY",binding,Avi-tagged KDM3A (human) [3],binds
